The nature of the data set: Cytotoxicity MTT assay in HepaRG cells. The data set is classed as cell-based. Particulars: human. (In general: Tetrazolium dyes change colour on reduction, which living cells bring about.)

Usually IC50 stands for the point on the concentration scale where inhibition reaches its midpoint. In the case of `O=C1OCCN1N=Cc1ccc([N+](=O)[O-])o1` [FZD, 3-(5-nitrofurfurylideneamino)-2-oxazolidinone], the IC50 at 24 h was above 100 µM.

These data come from publication PMC9853512 (RSC Advances, 2023).
